Test results: US20080254026A1
Results are given in words; binding and its absence hold for the method and conditions named. Some entries that bind do so weakly or less than the wild type.

By UniProt entry, the sequences of proteins in these tests, tags left out. Where a name states a change or a piece, a line headed by the entry shows the natural chain unless it says otherwise.
UniProt P25942: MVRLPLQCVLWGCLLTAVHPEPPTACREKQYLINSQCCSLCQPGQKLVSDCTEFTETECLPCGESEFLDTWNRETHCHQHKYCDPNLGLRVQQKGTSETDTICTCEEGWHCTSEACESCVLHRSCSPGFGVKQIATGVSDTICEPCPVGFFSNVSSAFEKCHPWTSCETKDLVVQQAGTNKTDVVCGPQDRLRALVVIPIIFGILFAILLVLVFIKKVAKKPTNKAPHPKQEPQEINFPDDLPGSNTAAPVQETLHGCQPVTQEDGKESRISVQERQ

Biological target: Recombinant soluble CD40-his (human) (UniProt P25942)
Experiment: complex formed in solution for the Biacore competition study

binding: binds
B1: CHIR-5.9 Fab (Fab, V domains shown)
VH: EVQLVQSGAEVKKPGESLKISCKGSGYSFTSYWIGWVRQMPGKGLEWMGIIYPGDSDTRYSPSFQGQVTISADKSISTAYLQWSSLKASDTAMYYCARGTAAGRDYYYYYGMDVWGQGTTVTVSS
VL: AIVMTQPPLSSPVTLGQPASISCRSSQSLVHSDGNTYLNWLQQRPGQPPRLLIYKFFRRLSGVPDRFSGSGAGTDFTLKISRVEAEDVGVYYCMQVTQFPHTFGQGTRLEIKR
